The text below walks through data of PubChem BioAssay AID1347426 (Functional Genomics Laboratory (NCATS/FGL), 2020).

About 1,400 (4.5%) of roughly 31,000 sequences were called active.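 How the source made its calls: active means median seed-adjusted z-score above 1 or below -1; inactive means the rest.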 The list shows a part of the results.

This assay in a line: Novel Modifiers of Survival Motor Neuron (SMN) Protein: Gene Identification via Genome-wide siRNA Screen.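 Further: luminescence tracks full-length SMN protein made from the SMN2 reporter.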 As to conditions: HEK293T SMN2-luciferase reporter, siRNA knockdown, 72 h; actives lie on both sides. The procedure, abridged:
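siRNA screen, 10418 genes ×3 siRNAs; 1 pmol/well, lipid reverse transfection into HEK293T SMN2-luc reporter line. 72 h, 37 °C, 5% CO2; ONE-Glo readout. Data: neg-ctrl normalized, log10, MAD; hit = MAD >1.0 or < -1.0.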
In the case of GGACCUGAUUGAUGCCGUCTT against PYCR1, the median seed-adjusted z-score is inactive: -0.171.

With GGAUACACUCAGACUCUAATT against VDAC1, the median seed-adjusted z-score is inactive: 0.133.

As for CCUUACUACAUGGAACUUATT against GINS2, the median seed-adjusted z-score is inactive: 0.553.

As for CGGUGGUCAUGAAUCGGUUTT against AQP5, the median seed-adjusted z-score is inactive: -0.116.

On to GGACCGAAGUGACUGUCUATT against CLNS1A, for which the median seed-adjusted z-score is inactive: 0.232.

As to CGUUCUAUCAACAAACUCATT against EIF2S1, the median seed-adjusted z-score is inactive: -0.175.

With CGAUGAAGGGUUCCGAUUATT against CR1, the median seed-adjusted z-score is inactive: 0.143.

With GGAGUCAACUGUGACAAGATT against TCEA3, the median seed-adjusted z-score was inactive: -0.28.

For GCUCAUUCCUUUUCGAGCATT against PEG3, the median seed-adjusted z-score was inactive: 0.5.

Take GCAGCUUUAACCAUUAAAATT against LTB4R: the median seed-adjusted z-score was inactive: 0.498.

In the case of GGUGGGUCCAGAUAACAGATT against AMIGO2, the median seed-adjusted z-score was inactive: -0.258.

Consider GGAGCAAAACCAAGGAUCATT against RBM24, for which the median seed-adjusted z-score was inactive: 0.0471.

With CGACUUUCUACUAUUCGAATT against ABCB5, the median seed-adjusted z-score is inactive: 0.495.

In the case of CUACCGAAGUGAUCCGAAUTT against RIMS2, the median seed-adjusted z-score is inactive: 0.534.

On to CGUCGGCGAGUACAACAAATT against CST3, for which the median seed-adjusted z-score is inactive: -0.188.

Take GUGUGUUUGUGGGCCCUGATT against FKBP2: the median seed-adjusted z-score is inactive: -0.0466.

On to GGAGGUGUAUGAGCCCGAUTT against BIN1, for which the median seed-adjusted z-score is inactive: 0.

Turning to GGACUUCAGGGUUUAACAATT against FOLR1, the median seed-adjusted z-score is active: -1.31.

For GGACCGUACCACUUCAGAATT against ABCC6, the median seed-adjusted z-score is inactive: 0.108.

On to CGUCUAAUGCUGCUCCACATT against AGPAT1, for which the median seed-adjusted z-score is active: -1.38.

As to GGAAUGCAUCUACAUCAUATT against NETO1, the median seed-adjusted z-score is inactive: 0.0504.

For GGGUCGUAGCAACAAAGGATT against PAFAH1B1, the median seed-adjusted z-score was inactive: 0.391.

Consider ACUCCAUCCUAACCACCCATT against TUBA3E, for which the median seed-adjusted z-score is inactive: -0.35.

On to GCGCGAAGAUUGAGCAGUATT against MYO7A, for which the median seed-adjusted z-score is inactive: -0.0127.

In the case of CCCUCAUAGUAUCUAUUCATT against ABCB7, the median seed-adjusted z-score was inactive: -0.0991.

On to GCCUGCAAGUGAAGCGGAATT against PRMT1, for which the median seed-adjusted z-score was inactive: -0.596.

For the sequence GAUCAGAGAAAAUACGGUATT against NARS, the median seed-adjusted z-score was inactive: -0.361.

Consider GCUUUACCAGUUUCGAUUATT against ACTR8, for which the median seed-adjusted z-score is inactive: -0.366.

For CAAGGUAUUAUGCAACGUATT against FLG, the median seed-adjusted z-score was inactive: 0.221.

For the sequence GAGCCCUCCUGAUUUUGAATT against TERF2IP, the median seed-adjusted z-score was inactive: 0.765.

In the case of GCACAGGAUGAGAUUUAUATT against DGKZ, the median seed-adjusted z-score is inactive: 0.

Consider CUCUUAUUGCUCAACGAUATT against KIF5C, for which the median seed-adjusted z-score was inactive: 0.283.

As for GCAUGAACAUUACGGAUAUTT against CARS, the median seed-adjusted z-score is inactive: 0.

With GCAUUGAUCAGAGAAAGAUTT against YARS, the median seed-adjusted z-score is inactive: 0.0197.

Turning to CGUUCGACAUCAUCACCGATT against PRKCZ, the median seed-adjusted z-score was inactive: -0.175.

With CAUCAUCUCCUGGACUUCATT against ELK1, the median seed-adjusted z-score is inactive: -0.52.

GAGAGAAGCUGGUAUCUCATT against MYO18B: the median seed-adjusted z-score is inactive: -0.597.

GCAGCAAUAGAAUCACUAATT against FANCL: the median seed-adjusted z-score was inactive: -0.0823.

As to CGCACGGACUGUACCAUUUTT against ETV2, the median seed-adjusted z-score was inactive: 0.

Consider GGUUCUAUUUGGAAUUUAUTT against HNRNPA1, for which the median seed-adjusted z-score is inactive: 0.563.

Turning to GAGUCGGCAUGUAGACUUUTT against BTBD10, the median seed-adjusted z-score is inactive: 0.695.

On to GUAAGAAACUCCGAAAUUATT against ZMAT3, for which the median seed-adjusted z-score is inactive: 0.979.

Turning to CUAAUUUCGUUACUCGAAATT against GMDS, the median seed-adjusted z-score is inactive: 0.

For GCAAUGACUUGAUAGCUAATT against OSBP, the median seed-adjusted z-score is inactive: 0.256.

As to CCAUUCGCAUGAUGGAGAATT against FEN1, the median seed-adjusted z-score was inactive: -0.316.

Take CCCUCUAUCUCUAAAGAAATT against CD8A: the median seed-adjusted z-score is inactive: 0.777.

Turning to UCCUAUACGUGGUUCCUCUTT against OPN1SW, the median seed-adjusted z-score was inactive: 0.32.

In the case of AGGCCGUGCUCUUCACCUATT against FAAH, the median seed-adjusted z-score was inactive: 0.373.

As for UCUACAUCAUGAAGGCUGATT against TNFRSF8, the median seed-adjusted z-score was inactive: 0.739.

Consider CGUGGACAUUUAUGGGUCATT against PADI3, for which the median seed-adjusted z-score was inactive: 0.147.

GGAUACAAAGCACAUAACATT against UBE2D4: the median seed-adjusted z-score is inactive: 0.232.

With CAAUAAGCCCAACUACAAATT against PES1, the median seed-adjusted z-score was inactive: 0.44.

For the sequence GGACUAUGUAUUUCAGGAATT against REN, the median seed-adjusted z-score was inactive: -0.48.

Consider CUAUUUUACCUUUACAAGATT against ALDH1A2, for which the median seed-adjusted z-score is inactive: 0.564.

With GGACUUCUACCAGAAGUUUTT against GRK6, the median seed-adjusted z-score was inactive: -0.862.

As to CUCUAUCAGUUCCUACAUATT against IHPK3, the median seed-adjusted z-score was inactive: -0.173.

Turning to GCUUCGUGUUCGACUAUGATT against CSNK1G2, the median seed-adjusted z-score was inactive: 0.511.

As for UCCCAAUUCUUGAAGUAUUTT against CYP3A4, the median seed-adjusted z-score is inactive: 0.633.

Consider CCACUAUCACAGAAUCCAATT against LSAMP, for which the median seed-adjusted z-score is inactive: -0.12.

Regarding AGAGAAAUAAUCAAACUGATT against RASSF4, the median seed-adjusted z-score was inactive: 0.29.

As for CGAUGUACCAGGACUACGATT against SIPA1L3, the median seed-adjusted z-score was inactive: 0.

For AACCUUUCCUCAUCACAAATT against TPP1, the median seed-adjusted z-score is inactive: -0.0334.

As to CACGUGCGCUGAUGAGAUUTT against CRB2, the median seed-adjusted z-score is inactive: 0.

As to GCUGGAUUACUAUCAACUATT against ENTPD1, the median seed-adjusted z-score is inactive: 0.567.

As for CAUAGGGACAUAUUCUUUATT against SLC39A1, the median seed-adjusted z-score is inactive: 0.658.

Consider GGUCAUGCAGAUUAUGUUATT against TUFM, for which the median seed-adjusted z-score is active: 1.07.

GAGUCUGAAGGAUACUAUUTT against PGAM1: the median seed-adjusted z-score is inactive: -0.234.

For GAAUCUAUGGUGAAGUACATT against ATP8B4, the median seed-adjusted z-score is inactive: -0.00244.

On to CCACUUCCGGAUGACCAUUTT against GPT, for which the median seed-adjusted z-score was inactive: -0.00224.

With GGAGCCGGGUUACAUCAAATT against GRIN2B, the median seed-adjusted z-score was inactive: 0.0402.

As for CAAUAUGCCUUUCUCUACATT against DNASE1L3, the median seed-adjusted z-score is inactive: 0.0678.

Consider GCAGUGAUCAAAAACAGAATT against LPAR3, for which the median seed-adjusted z-score was inactive: -0.3.

As to CAUCAAAGAUUGCACUUCATT against TOMM34, the median seed-adjusted z-score is inactive: -0.503.

In the case of CGACCAUAGGGUAUGGGAATT against KCNK10, the median seed-adjusted z-score is inactive: 0.239.

As to AUAUAACACUUCUACUCUUTT against CMA1, the median seed-adjusted z-score is inactive: -0.0475.

On to AACUUUAGAGCACAAUUUUTT against ZNF33A, for which the median seed-adjusted z-score was inactive: 0.0628.

Regarding CCAGCAAUGAGAAAAAUCUTT against HOXA2, the median seed-adjusted z-score was inactive: 0.335.

Regarding CAAGUGUUAUGACAUCGUUTT against PRKAG2, the median seed-adjusted z-score is inactive: -0.367.

In the case of CAGCUGUUCCCGUCUACAATT against ZDHHC8, the median seed-adjusted z-score is inactive: 0.

Turning to GAGAUGAGAAUGUUUUAAATT against IKZF3, the median seed-adjusted z-score is inactive: 0.0181.

Turning to GCCGCUUUGUAGUUCAGAATT against HSPH1, the median seed-adjusted z-score was inactive: -0.314.

On to GAGGAGCUGUCACUACGCATT against MYOZ3, for which the median seed-adjusted z-score is inactive: 0.16.

In the case of GAAGCUAUAUUUUCCGGUUTT against CBLB, the median seed-adjusted z-score was inactive: 0.

CUCUAGGAAUGACGGAUUATT against PDGFRA: the median seed-adjusted z-score is inactive: 0.0399.

Take GAACUUGUCGCAUUGCGUUTT against TRIB2: the median seed-adjusted z-score is inactive: 0.

Consider CCCUCAUCAAGAACUUUCATT against S100A14, for which the median seed-adjusted z-score was inactive: 0.0172.

Regarding CAGUAGUUAUAAUACUAGATT against SLC30A4, the median seed-adjusted z-score is inactive: 0.158.

With GCAUCAAGAUUUUCCGCUUTT against SLC26A2, the median seed-adjusted z-score was active: -1.25.

For the sequence GCAUGAUUCCAAUAGAGAATT against ACOT4, the median seed-adjusted z-score was inactive: -0.158.

In the case of GCUCCGUCCUUUUCAAAGATT against DHX37, the median seed-adjusted z-score was inactive: -0.126.

Take GAGUCAGAAGUUUACCAAATT against AFP: the median seed-adjusted z-score was inactive: -0.144.

Turning to GGACUAUUCUAUCUGCUCATT against PUS3, the median seed-adjusted z-score was inactive: 0.584.

Turning to CAGCACCCGUGAAAAGCAATT against CHTF18, the median seed-adjusted z-score is inactive: 0.371.

On to UGACUAUUGCGACUGCAAATT against PRKCSH, for which the median seed-adjusted z-score is inactive: -0.0512.

As for GACCGAUGGAGGUAGUAUATT against GLI3, the median seed-adjusted z-score is inactive: 0.143.

For CAGUCUUCACUGACAACUATT against VIP, the median seed-adjusted z-score was active: 1.52.

Consider CCAAGACCGGUUCAGCUUUTT against B4GALNT3, for which the median seed-adjusted z-score was inactive: -0.021.

For CCACUACGGUGUUCAUGCATT against PPARD, the median seed-adjusted z-score was inactive: 0.0283.

For CUUUGGACAUGUUCCAGAATT against ALOX12, the median seed-adjusted z-score is inactive: -0.247.

In the case of ACCCAGAUCUGCAAAUACATT against KLK10, the median seed-adjusted z-score was inactive: -0.902.

AUAUAUUGCUUGGAGAUGATT against STK16: the median seed-adjusted z-score was inactive: 0.113.

Consider GAGCAACUGUGAUGAGGAATT against EMID2, for which the median seed-adjusted z-score is inactive: 0.0465.

As to GACUCAGACCACCACCAGATT against ZFP64, the median seed-adjusted z-score was inactive: -0.659.

In the case of GGAAUAUCCCUGGACAACATT against CASP3, the median seed-adjusted z-score was inactive: -0.874.

On to GACUUGCCUUUGAACUACATT against SCN5A, for which the median seed-adjusted z-score was inactive: -0.167.

CCAUCGUCAACAUACGGAATT against TRIT1: the median seed-adjusted z-score is inactive: 0.794.

Turning to CCAGUCCUGAGUAUCCCAATT against CDCP2, the median seed-adjusted z-score is inactive: 0.0708.

Consider GCAUCUCGCUUACCCUCAATT against ATXN1, for which the median seed-adjusted z-score is inactive: -0.024.
